1 molecule from paper PMC6834558 can be followed below.

The test addresses T1, EGFL9-V5 (overexpressed in HMLE/EGFL9 cells) (UniProt Q6UY11).
T1 sequence: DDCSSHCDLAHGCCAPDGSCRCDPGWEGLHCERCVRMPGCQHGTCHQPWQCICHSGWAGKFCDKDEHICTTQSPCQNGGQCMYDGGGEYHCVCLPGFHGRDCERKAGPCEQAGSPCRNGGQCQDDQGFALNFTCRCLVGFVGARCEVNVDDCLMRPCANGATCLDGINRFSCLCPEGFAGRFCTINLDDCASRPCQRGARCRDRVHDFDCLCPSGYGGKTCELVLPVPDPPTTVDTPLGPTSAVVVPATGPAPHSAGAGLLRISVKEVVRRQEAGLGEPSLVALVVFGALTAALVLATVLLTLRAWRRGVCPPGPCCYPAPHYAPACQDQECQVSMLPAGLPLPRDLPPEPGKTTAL
In words: affinity purification with mass spectrometry; EGFL9 IP from mitochondria purified from HMLE/EGFL9 cells, followed by mass spectrometry.

Results are given in words; binding and its absence hold for the method and conditions named. In cells and extracts the contact can be indirect. These calls come from enrichment with a bait or labelling near it, and not all partners need be listed. Tags and fused reporters may be left off the sequences shown.

B1: COA3 (endogenous, mitochondria of HMLE/EGFL9 cells) (protein, UniProt Q9Y2R0 1-106)
chain: MASSGAGDPLDSKRGEAPFAQRIDPTREKLTPEQLHSMRQAELAQWQKVLPRRRTRNIVTGLGIGALVLAIYGYTFYSISQERFLDELEDEAKAARARALARASGS
For the molecule B1, the binding entry is reported as “binds”.
